According to article PMC12456409:
These are yes or no findings as the source states them, for the method shown. In cells and extracts the contact can be indirect. Some binding calls cover weakened binding; strength is not graded here.

By UniProt entry, the sequences of proteins in these tests, tags left out. Residues count along the entry.
UniProt P16070, residues 21-742: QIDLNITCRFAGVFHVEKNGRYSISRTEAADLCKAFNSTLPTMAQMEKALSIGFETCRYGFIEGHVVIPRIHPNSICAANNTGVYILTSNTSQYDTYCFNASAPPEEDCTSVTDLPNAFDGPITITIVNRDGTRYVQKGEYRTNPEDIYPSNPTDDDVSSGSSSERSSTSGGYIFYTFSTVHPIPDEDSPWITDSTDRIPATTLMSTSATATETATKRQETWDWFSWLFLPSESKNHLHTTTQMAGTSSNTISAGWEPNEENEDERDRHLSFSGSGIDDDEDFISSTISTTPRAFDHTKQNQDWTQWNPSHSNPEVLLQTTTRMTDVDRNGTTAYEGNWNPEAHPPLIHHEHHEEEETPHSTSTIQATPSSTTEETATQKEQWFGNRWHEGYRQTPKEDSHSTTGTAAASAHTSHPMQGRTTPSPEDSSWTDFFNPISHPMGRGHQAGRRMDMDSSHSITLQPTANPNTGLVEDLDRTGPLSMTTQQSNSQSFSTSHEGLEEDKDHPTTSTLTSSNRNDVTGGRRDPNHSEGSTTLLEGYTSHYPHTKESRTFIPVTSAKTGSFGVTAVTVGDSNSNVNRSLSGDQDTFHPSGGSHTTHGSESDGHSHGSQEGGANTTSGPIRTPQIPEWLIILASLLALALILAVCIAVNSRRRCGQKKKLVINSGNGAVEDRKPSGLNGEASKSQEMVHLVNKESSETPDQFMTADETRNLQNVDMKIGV
UniProt Q15836: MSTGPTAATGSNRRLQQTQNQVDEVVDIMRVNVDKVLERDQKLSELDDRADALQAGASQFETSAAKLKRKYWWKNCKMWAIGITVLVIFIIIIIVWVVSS
UniProt P61586: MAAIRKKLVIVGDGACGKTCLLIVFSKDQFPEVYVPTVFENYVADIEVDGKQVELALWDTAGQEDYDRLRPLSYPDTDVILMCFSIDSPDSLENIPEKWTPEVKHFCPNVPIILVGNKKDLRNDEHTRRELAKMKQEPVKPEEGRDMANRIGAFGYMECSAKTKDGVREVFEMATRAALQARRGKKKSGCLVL

How the values were obtained:
[1] = molecular target: Galectin-9 (human (endogenous in moDCs)) (UniProt O00182); assay: co-IP; IP with a galectin-9-specific antibody or isotype control from whole-cell lysates of day 7 matured moDCs; blots for galectin-9, Vamp-3 and CD44
[2] = molecular target: CD44 (human (endogenous in moDCs)) (UniProt P16070); assay: proximity ligation; Duolink In Situ PLA Orange on PFA-fixed, LPS-matured moDCs on coverslips; endogenous proteins, isotypes as negative control; NT or LGALS9 siRNA cells, with or without 5 ug/ml RhoA activator II for 3 h

Row | binding [1] | binding [2] | Substance
1 | binds | – | Vamp-3 (from UniProt Q15836 1-100)
2 | – | binds | RhoA (from UniProt P61586 1-193)
3 | binds | – | CD44 (from UniProt P16070 21-742) (receptor)
